For 68 sequences, median seed-adjusted z-score results are on record in PubChem BioAssay AID1347426 (Functional Genomics Laboratory (NCATS/FGL), 2020).

Screen size: about 31,000 sequences; about 1,400 (4.5%) were called active.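 Rule for the calls: active = median seed-adjusted z-score above 1 or below -1; inactive = the rest.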 The list shows a part of the results.

This assay can be described thus: Novel Modifiers of Survival Motor Neuron (SMN) Protein: Gene Identification via Genome-wide siRNA Screen.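 Note: luminescence tracks full-length SMN protein made from the SMN2 reporter.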 The settings on record: HEK293T SMN2-luciferase reporter, siRNA knockdown, 72 h; actives lie on both sides. In a few lines: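 Steps: spot 1 pmol siRNA, add Lipofectamine RNAiMax in serum-free DMEM, seed HEK293T SMN2–luciferase reporter cells; incubate 72 h at 37 °C; add ONE-Glo; normalize luminescence to control siRNA, log10, MAD. Candidates: |MAD| > 1.0.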
For the sequence ACAGAUUAAUUUUUCCAUATT against RAC1, the median seed-adjusted z-score was inactive: -0.0348. Consider UGAGGACAAUCAUGAGGAATT against GABARAPL1, for which the median seed-adjusted z-score is inactive: 0.402.

AGACUACAACAGGCCCAAATT against ICAM1: the median seed-adjusted z-score is inactive: 0.345. Consider UGACCUGUCUGGUUGCACATT against ENG, for which the median seed-adjusted z-score is inactive: -0.254. On to GCAGGACUCAAGCAAGCUATT against STX12, for which the median seed-adjusted z-score was inactive: -0.797. As for GGACGACCGUGUAUAGUUUTT against RFESD, the figure is inactive: -0.503; as for GAGGAAAGGUUACAUUAAATT against ALKBH8, inactive: -0.487; as for CGAUGUUGAAAGUACGGGATT against SLC39A4, inactive: 0.0304. As to GCUCAGCCGAAAGAAGUCATT against MSI2, the median seed-adjusted z-score was inactive: 0.582. Take GGUCAUAUGUGACGAGGGATT against RAD54L: the median seed-adjusted z-score was inactive: -0.393.

In the case of CGCCAUCUGUGUAACUUCATT against CARD9, the median seed-adjusted z-score is inactive: -0.325. Regarding GGCACGUCCAUUCCGAAGATT against CD82, the median seed-adjusted z-score was inactive: 0.102.

In the case of GGACCAGUCUGCCUAUGUATT against NXF5, the median seed-adjusted z-score is inactive: -0.396. For the sequence ACGUGUUUGCUUCCACAAATT against NEURL2, the median seed-adjusted z-score is active: 1.39.

As to CCAAGGACCUGGUCUGAAATT against CUGBP1, the median seed-adjusted z-score was inactive: 0.086. Consider GGGAGAAUAUGAGCCGAAATT against CNTN5, for which the median seed-adjusted z-score was inactive: -0.236.

As to CACCAAGCCUGACACCGUATT against EPHX1, the median seed-adjusted z-score was inactive: 0. CGCAUCAUCUGUAUCCUUATT against GDI1: the median seed-adjusted z-score was inactive: 0.198. For GAAAAGGUUUUACAGCAAATT against HDAC4 the value was inactive: -0.0988; for GGUCAUUGACGAUUGCAUUTT against NUDT21, inactive: 0.0851; for GCUCCGCAAAUGUGGUUGATT against ZNF714, inactive: 0. As to CGCUGUUAAACUUCACCUUTT against TSHZ3, the median seed-adjusted z-score is inactive: 0.301. Turning to GGAGUGUAAUAAGUGCCGATT against MLL, the median seed-adjusted z-score was inactive: 0.227.

Turning to GAACCUAUCAAGAUGCGAATT against GUCY1A3, the median seed-adjusted z-score is inactive: 0.187. For CCGCACCAGUAAUCGGAAATT against MAST1 the value was inactive: -0.0897; for AACUGCUACUGAUAGGCAATT against RAB3D, inactive: 0.221; for GGCCUUGAUUGAGCAUGAATT against LYPLA2, inactive: 0.28. Turning to UCGUCUUUGUCACCCGAAATT against CCL5, the median seed-adjusted z-score is inactive: 0.11. For CCUCUUAAGUGUGCUGGAATT against MS4A4A the value was inactive: 0.296; for GGGAAGAUACAAGAACUUATT against ATP6V1G3, inactive: 0.489; for CACAUGUAAUUCAUACCUATT against ZNF28, inactive: 0.814. On to GCACGAAGCUUUCCCUGGATT against KRT78, for which the median seed-adjusted z-score is inactive: 0.306. Take GGCUGACACUAGAGGACUATT against DHRS9: the median seed-adjusted z-score was inactive: -0.0523. GAGCUAACAGAGGUGAUUATT against PPP2R2A: the median seed-adjusted z-score was inactive: -0.596. Consider GGAGUUCGACAGAUUCCUATT against PCAF, for which the median seed-adjusted z-score is inactive: -0.00665. On to GACUUGUGAUACAAGCGUATT against RAD23B, for which the median seed-adjusted z-score was inactive: 0.639.

On to GGCCUUCAACGAGUUCUAUTT against MUC5B, for which the median seed-adjusted z-score is inactive: 0.141. Take GGAUCGUGUCUAUGAUAUUTT against BRS3: the median seed-adjusted z-score is inactive: 0.224. Turning to CCACGGAAGUUUCAGUACATT against COL6A3, the median seed-adjusted z-score is inactive: 0.341. For GAAUAGUUUGUAUAGUAUATT against MYCBP, the median seed-adjusted z-score is inactive: -0.196. As to GAAAGACAGAUCAAGAUUUTT against HOXB7, the median seed-adjusted z-score was inactive: -0.153. As for CCUUGGAAUUUAUACCGAATT against SETMAR, the median seed-adjusted z-score is inactive: 0.191.

On to CUAUCUUGGGUUUACCGUATT against CLK1, for which the median seed-adjusted z-score was inactive: -0.436.

Consider GCCUGAGACGGAGCAAUGATT against RABEP2, for which the median seed-adjusted z-score is inactive: -0.0546. Consider CAGCUUAAGGGUAUAGUUATT against FGF13, for which the median seed-adjusted z-score was inactive: 0.875. CGGGAUCACCCUCAACUAATT against MXRA5: the median seed-adjusted z-score was inactive: 0.104. As to CCACAUCUAACAUCCGCAATT against ZNF76, the median seed-adjusted z-score is inactive: -0.0395.

As to GGGUCCAGUUCAAGACAUATT against LYPLA2, the median seed-adjusted z-score was inactive: 0.28. Regarding GGUCGAAGAUCAAUUUACATT against HMGCR, the median seed-adjusted z-score is inactive: 0.00174.

In the case of GGAGUAUAUUGAGUAUGGATT against CNOT1, the median seed-adjusted z-score was active: 1.2.

Take CCUUGCCUCUCUGACCCAUTT against EXOSC5: the median seed-adjusted z-score was inactive: 0.109. As for GAAGGGUGAUUCUAAUAUUTT against GPR174, the median seed-adjusted z-score is inactive: -0.324. As for GCCGCAUCUGCUAACCUUATT against PPP4R1, the median seed-adjusted z-score is inactive: -0.911. In the case of CCAACAACAAAACCACUUATT against NDUFA12, the median seed-adjusted z-score is inactive: -0.377. Consider AGAGCCGGUUGAAAAGCAATT against CEBPG, for which the median seed-adjusted z-score is inactive: -0.561. For CACGAAAACUGGACAAAUUTT against CDC16, the median seed-adjusted z-score was inactive: 0.106. As to CCCUUGAUCUAUCUGGGAATT against LRRC32, the median seed-adjusted z-score is inactive: 0.0464. Take CAUCUACGAGGACUACGUATT against RGS19: the median seed-adjusted z-score is inactive: 0.295. For GAUACAGUCCAGAUCCUCATT against CBFA2T2 the value was inactive: -0.201. Turning to CCACAGAUGUGCAUAAACATT against NFKB2, the median seed-adjusted z-score is inactive: -0.132. Turning to GGACAACCAUCUUCAAAGATT against ZKSCAN5, the median seed-adjusted z-score was inactive: -0.229. Consider GCCAAAUGGCGACACCAGATT against GSC2, for which the median seed-adjusted z-score is inactive: -0.0829. In the case of GCAGUUCGAGGUCAAGUUUTT against OAS3, the median seed-adjusted z-score is inactive: 0.147. As for CAAAUUUACAUAGACGUAATT against ZNF195, the median seed-adjusted z-score was inactive: 0.0753.

Consider CACUGAUUACAGAAAGAGATT against ZNF334, for which the median seed-adjusted z-score is inactive: 0.611. For GGUGUGGUACGGAAACUCATT against PRDM12 the value was inactive: 0.245. For GGAAAACCAUUGGAUAUAUTT against AQP4, the median seed-adjusted z-score is inactive: -0.361. In the case of CCAUGAUGCCUUAACAUGUTT against ARHGDIA, the median seed-adjusted z-score is inactive: 0.627.
